Laboratory results published in publication PMC12900694.
No constants are given. Whether binding was seen depends on the method and setting. In cells and extracts the contact can be indirect. Some binding calls cover weakened binding; strength is not graded here.

The chains behind the UniProt entries cited, without tags or fusion partners.
UniProt Q96PU5: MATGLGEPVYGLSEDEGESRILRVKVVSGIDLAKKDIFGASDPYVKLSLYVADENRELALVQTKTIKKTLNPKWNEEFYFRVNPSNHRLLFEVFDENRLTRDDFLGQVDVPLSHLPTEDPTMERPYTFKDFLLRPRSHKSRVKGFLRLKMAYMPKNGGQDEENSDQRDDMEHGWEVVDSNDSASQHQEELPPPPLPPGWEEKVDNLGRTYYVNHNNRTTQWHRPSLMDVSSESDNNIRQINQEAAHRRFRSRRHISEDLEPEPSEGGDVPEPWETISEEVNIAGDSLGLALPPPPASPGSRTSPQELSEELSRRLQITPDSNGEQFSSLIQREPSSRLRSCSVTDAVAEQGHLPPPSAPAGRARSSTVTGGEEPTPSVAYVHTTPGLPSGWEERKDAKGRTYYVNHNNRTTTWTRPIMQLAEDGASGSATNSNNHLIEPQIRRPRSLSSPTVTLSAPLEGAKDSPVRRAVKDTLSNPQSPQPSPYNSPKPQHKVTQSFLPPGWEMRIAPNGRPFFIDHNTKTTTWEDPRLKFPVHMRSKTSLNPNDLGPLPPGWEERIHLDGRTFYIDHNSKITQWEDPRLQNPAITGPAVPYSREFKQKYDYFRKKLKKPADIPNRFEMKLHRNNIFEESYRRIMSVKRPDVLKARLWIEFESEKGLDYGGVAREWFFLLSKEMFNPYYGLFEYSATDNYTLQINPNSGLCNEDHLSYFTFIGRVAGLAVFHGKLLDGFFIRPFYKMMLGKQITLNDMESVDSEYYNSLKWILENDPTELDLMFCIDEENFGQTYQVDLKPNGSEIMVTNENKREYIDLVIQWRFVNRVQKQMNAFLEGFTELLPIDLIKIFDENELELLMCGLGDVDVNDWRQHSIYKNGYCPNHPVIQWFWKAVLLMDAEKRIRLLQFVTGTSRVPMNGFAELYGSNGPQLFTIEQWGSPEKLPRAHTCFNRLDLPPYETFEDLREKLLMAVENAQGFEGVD
UniProt P68104: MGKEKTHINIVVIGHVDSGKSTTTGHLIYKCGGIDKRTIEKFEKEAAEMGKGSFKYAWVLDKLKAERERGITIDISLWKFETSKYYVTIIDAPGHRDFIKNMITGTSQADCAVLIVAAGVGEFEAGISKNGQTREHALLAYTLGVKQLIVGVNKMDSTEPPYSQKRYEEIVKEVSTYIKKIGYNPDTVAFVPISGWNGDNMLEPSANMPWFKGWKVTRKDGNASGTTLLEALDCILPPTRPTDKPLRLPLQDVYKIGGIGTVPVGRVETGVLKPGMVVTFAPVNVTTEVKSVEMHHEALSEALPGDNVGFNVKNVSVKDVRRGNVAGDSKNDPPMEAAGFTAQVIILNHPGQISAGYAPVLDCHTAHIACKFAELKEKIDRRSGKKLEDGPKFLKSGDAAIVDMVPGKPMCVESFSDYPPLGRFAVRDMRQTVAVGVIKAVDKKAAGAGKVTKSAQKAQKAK

Key:
Flag-NEDD4L = Flag-NEDD4L (UniProt Q96PU5); assay: co-IP; HEK293T cells co-transfected with Flag-NEDD4L and HA-eEF1A1 for 24 h; lysates immunoprecipitated with anti-Flag, blotted with anti-HA
[1] = biological target: NEDD4L (endogenous, HUVECs) (human (endogenous in HUVECs)) (UniProt Q96PU5); assay: co-IP; HUVEC whole-cell lysates, with or without si-NEDD4L for 24 h; IP with anti-NEDD4L or anti-eEF1A1, protein A-agarose, washed with IPH buffer at 4°C; blotted for eEF1A1 and NEDD4L

Row | Substance | binding (Flag-NEDD4L) | binding [1]
1 | HA-eEF1A1 (from UniProt P68104 1-462) | binds | –
2 | eEF1A1 (endogenous, HUVECs) (from UniProt P68104 1-462) | – | binds
